Measurements reported in the supplement of paper PMC10077471.
Over roughly 1,900 compounds, “excess over highest single agent (ExcessHSA) synergy score, 6x6 matrix” has its median near -83; the lowest 2% begin near -370. Some of the results follow.

test system: NCI-H446; experiment: excess over highest single agent (ExcessHSA) synergy score, 6x6 matrix; higher = less synergy (more negative = stronger synergy); settings: 72 h; CellTiter-Glo viability

For `NC(=O)c1cccc(-c2cccc(OC(=O)NC3CCCCC3)c2)c1` + Cc1sc2c(c1C)C(c1ccc(Cl)cc1)=N[C@@H](CC(=O)OC(C)(C)C)c1nnc(C)n1-2 [NCGC00250412-19], which “excess over highest single agent” value is on record?
Its value is -129.

`Cc1[nH]c(=O)c(C#N)cc1-c1ccc2nccn2c1` + Cc1sc2c(c1C)C(c1ccc(Cl)cc1)=N[C@@H](CC(=O)OC(C)(C)C)c1nnc(C)n1-2 [NCGC00250412-19] was tested. Which “excess over highest single agent” value did it give?
Its value is -204.

How did the “excess over highest single agent” value turn out when `COC[C@H]1OC(=O)c2coc3c2[C@@]1(C)C1=C(C3=O)[C@@H]2CCC(=O)[C@@]2(C)C[C@H]1OC(C)=O` + Cc1sc2c(c1C)C(c1ccc(Cl)cc1)=N[C@@H](CC(=O)OC(C)(C)C)c1nnc(C)n1-2 [NCGC00250412-19] was run?
Its value is -484.

`CN(C(Cc1ccc(OS(=O)(=O)c2cccc3cnccc23)cc1)C(=O)N1CCN(c2ccccc2)CC1)S(=O)(=O)c1cccc2cnccc12` (centres undefined) + Cc1sc2c(c1C)C(c1ccc(Cl)cc1)=N[C@@H](CC(=O)OC(C)(C)C)c1nnc(C)n1-2 [NCGC00250412-19] was tested. Which “excess over highest single agent” value did it give?
The value was -136.

How did the “excess over highest single agent” value turn out when `C#Cc1cccc(Nc2ncnc3cc(OCCOC)c(OCCO)cc23)c1` + Cc1sc2c(c1C)C(c1ccc(Cl)cc1)=N[C@@H](CC(=O)OC(C)(C)C)c1nnc(C)n1-2 [NCGC00250412-19] was run?
The value was -46.8.

How did the “excess over highest single agent” value turn out when `CC[C@H](CC#N)OC(=O)N[C@@H](C)c1cccc(NC(=O)Nc2ccc(-c3cnco3)c(OC)c2)c1` + Cc1sc2c(c1C)C(c1ccc(Cl)cc1)=N[C@@H](CC(=O)OC(C)(C)C)c1nnc(C)n1-2 [NCGC00250412-19] was run?
Its value is -174.

How did the “excess over highest single agent” value turn out when `Cn1cnc2c(F)c(Nc3ccc(Br)cc3F)c(C(=O)NOCCO)cc21` + Cc1sc2c(c1C)C(c1ccc(Cl)cc1)=N[C@@H](CC(=O)OC(C)(C)C)c1nnc(C)n1-2 [NCGC00250412-19] was run?
The value was 111.

How did the “excess over highest single agent” value turn out when `NC(=O)c1cnccn1` + Cc1sc2c(c1C)C(c1ccc(Cl)cc1)=N[C@@H](CC(=O)OC(C)(C)C)c1nnc(C)n1-2 [NCGC00250412-19] was run?
The value was 81.8.

`Nc1nc(N)c(N=O)c(OCC2CCCCC2)n1` + Cc1sc2c(c1C)C(c1ccc(Cl)cc1)=N[C@@H](CC(=O)OC(C)(C)C)c1nnc(C)n1-2 [NCGC00250412-19] was tested. Which “excess over highest single agent” value did it give?
The value was -171.

How did the “excess over highest single agent” value turn out when `CCCCn1c(=O)n(Cc2ccccc2F)c(=O)c2[nH]c(Cc3ccc(NC(C)=O)cc3)nc21` + Cc1sc2c(c1C)C(c1ccc(Cl)cc1)=N[C@@H](CC(=O)OC(C)(C)C)c1nnc(C)n1-2 [NCGC00250412-19] was run?
The value was -144.

Which “excess over highest single agent” value does the source give for `Nc1ccc(-c2ccc3ncc4ccc(=O)n(-c5cccc(C(F)(F)F)c5)c4c3c2)cn1` + Cc1sc2c(c1C)C(c1ccc(Cl)cc1)=N[C@@H](CC(=O)OC(C)(C)C)c1nnc(C)n1-2 [NCGC00250412-19] here?
The value was -131.

How did the “excess over highest single agent” value turn out when `N/C(=N\C(=O)c1nc(Cl)c(N)nc1N)NCc1ccccc1` + Cc1sc2c(c1C)C(c1ccc(Cl)cc1)=N[C@@H](CC(=O)OC(C)(C)C)c1nnc(C)n1-2 [NCGC00250412-19] was run?
The value was -90.4.

With `CCCCC[C@H](O)/C=C/[C@H]1[C@H](O)CC(=O)[C@@H]1C/C=C\CCCC(=O)O` + Cc1sc2c(c1C)C(c1ccc(Cl)cc1)=N[C@@H](CC(=O)OC(C)(C)C)c1nnc(C)n1-2 [NCGC00250412-19] as the molecule, how does the “excess over highest single agent” value read?
Its value is 166.

How did the “excess over highest single agent” value turn out when `CCOc1cc(C(=O)Nc2ccc(Cl)c(-c3nc4ccccc4[nH]3)c2)cc(OCC)c1OCC` + Cc1sc2c(c1C)C(c1ccc(Cl)cc1)=N[C@@H](CC(=O)OC(C)(C)C)c1nnc(C)n1-2 [NCGC00250412-19] was run?
The value was -16.

`Cc1ccccc1C(C(=O)NC1CCCCC1)N(C(=O)Cn1ccnc1C)c1cccc(F)c1` (centres undefined) + Cc1sc2c(c1C)C(c1ccc(Cl)cc1)=N[C@@H](CC(=O)OC(C)(C)C)c1nnc(C)n1-2 [NCGC00250412-19] was tested. Which “excess over highest single agent” value did it give?
The value was -207.

`O[C@@H](CNC[C@H](O)[C@H]1CCc2cc(F)ccc2O1)[C@@H]1CCc2cc(F)ccc2O1` + Cc1sc2c(c1C)C(c1ccc(Cl)cc1)=N[C@@H](CC(=O)OC(C)(C)C)c1nnc(C)n1-2 [NCGC00250412-19] was tested. Which “excess over highest single agent” value did it give?
The value was -95.2.

Which “excess over highest single agent” value does the source give for `O=C(O)c1cc(=O)[nH]c(=O)[nH]1` + Cc1sc2c(c1C)C(c1ccc(Cl)cc1)=N[C@@H](CC(=O)OC(C)(C)C)c1nnc(C)n1-2 [NCGC00250412-19] here?
Its value is 0.93.

With `O=c1n(CCCN2CCN(c3cccc(Cl)c3)CC2)nc2ccccn12` + Cc1sc2c(c1C)C(c1ccc(Cl)cc1)=N[C@@H](CC(=O)OC(C)(C)C)c1nnc(C)n1-2 [NCGC00250412-19] as the molecule, how does the “excess over highest single agent” value read?
Its value is 7.14.

Which “excess over highest single agent” value does the source give for `Oc1ccc(-c2nc(-c3ccc(F)cc3)c(-c3ccncc3)[nH]2)cc1` + Cc1sc2c(c1C)C(c1ccc(Cl)cc1)=N[C@@H](CC(=O)OC(C)(C)C)c1nnc(C)n1-2 [NCGC00250412-19] here?
Its value is -11.

With `CCC(NC(C)C)C(O)c1ccc(O)c2[nH]c(=O)ccc12` (centres undefined) + Cc1sc2c(c1C)C(c1ccc(Cl)cc1)=N[C@@H](CC(=O)OC(C)(C)C)c1nnc(C)n1-2 [NCGC00250412-19] as the molecule, how does the “excess over highest single agent” value read?
The value was -103.

How did the “excess over highest single agent” value turn out when `COc1ccc2c(c1)[C@]13CCCC[C@@H]1[C@H](C2)N(C)CC3` + Cc1sc2c(c1C)C(c1ccc(Cl)cc1)=N[C@@H](CC(=O)OC(C)(C)C)c1nnc(C)n1-2 [NCGC00250412-19] was run?
The value was 30.1.

`O=C(NC[C@H](O)CO)c1ccncc1Nc1ccc(I)cc1F` + Cc1sc2c(c1C)C(c1ccc(Cl)cc1)=N[C@@H](CC(=O)OC(C)(C)C)c1nnc(C)n1-2 [NCGC00250412-19] was tested. Which “excess over highest single agent” value did it give?
Its value is -207.

For `O=C(O)c1ccc2cc(-c3ccc(O)c(C45CC6CC(CC(C6)C4)C5)c3)ccc2c1` + Cc1sc2c(c1C)C(c1ccc(Cl)cc1)=N[C@@H](CC(=O)OC(C)(C)C)c1nnc(C)n1-2 [NCGC00250412-19], which “excess over highest single agent” value is on record?
Its value is -225.

With `C=C[C@H]1CN2CC[C@H]1C[C@H]2[C@H](O)c1ccnc2ccccc12` + Cc1sc2c(c1C)C(c1ccc(Cl)cc1)=N[C@@H](CC(=O)OC(C)(C)C)c1nnc(C)n1-2 [NCGC00250412-19] as the molecule, how does the “excess over highest single agent” value read?
Its value is -73.2.

For `Cc1ncc([N+](=O)[O-])n1CC(C)O` (centres undefined) + Cc1sc2c(c1C)C(c1ccc(Cl)cc1)=N[C@@H](CC(=O)OC(C)(C)C)c1nnc(C)n1-2 [NCGC00250412-19], which “excess over highest single agent” value is on record?
The value was 112.

With `c1cc(N[C@@H]2CCNC2)nc(-c2cnc3ccc(-c4cn[nH]c4)cn23)c1` + Cc1sc2c(c1C)C(c1ccc(Cl)cc1)=N[C@@H](CC(=O)OC(C)(C)C)c1nnc(C)n1-2 [NCGC00250412-19] as the molecule, how does the “excess over highest single agent” value read?
The value was -284.

With `C/C=C(/C(=C/C)c1ccc(O)cc1)c1ccc(O)cc1` + Cc1sc2c(c1C)C(c1ccc(Cl)cc1)=N[C@@H](CC(=O)OC(C)(C)C)c1nnc(C)n1-2 [NCGC00250412-19] as the molecule, how does the “excess over highest single agent” value read?
Its value is -25.6.

`OCCn1cc(-c2cnc3nnn(Cc4ccc5ncccc5c4)c3n2)cn1` + Cc1sc2c(c1C)C(c1ccc(Cl)cc1)=N[C@@H](CC(=O)OC(C)(C)C)c1nnc(C)n1-2 [NCGC00250412-19] was tested. Which “excess over highest single agent” value did it give?
The value was -235.

With `O=[N+]([O-])c1ccc(Nc2ccccc2-c2ccccc2)c2nonc12` + Cc1sc2c(c1C)C(c1ccc(Cl)cc1)=N[C@@H](CC(=O)OC(C)(C)C)c1nnc(C)n1-2 [NCGC00250412-19] as the molecule, how does the “excess over highest single agent” value read?
Its value is -89.8.

How did the “excess over highest single agent” value turn out when `C[C@]12CCC(=O)C=C1[C@@H]1C[C@@H]1[C@H]1[C@@H]3[C@@H]4C[C@@H]4[C@@]4(CCC(=O)O4)[C@@]3(C)CC[C@@H]12` + Cc1sc2c(c1C)C(c1ccc(Cl)cc1)=N[C@@H](CC(=O)OC(C)(C)C)c1nnc(C)n1-2 [NCGC00250412-19] was run?
The value was -150.

With `COc1ccc2cc([C@H](C)C(=O)O)ccc2c1` + Cc1sc2c(c1C)C(c1ccc(Cl)cc1)=N[C@@H](CC(=O)OC(C)(C)C)c1nnc(C)n1-2 [NCGC00250412-19] as the molecule, how does the “excess over highest single agent” value read?
Its value is -82.6.

For `Cc1ccccc1-n1c(Cn2cnc3c(N)ncnc32)nc2cccc(C)c2c1=O` + Cc1sc2c(c1C)C(c1ccc(Cl)cc1)=N[C@@H](CC(=O)OC(C)(C)C)c1nnc(C)n1-2 [NCGC00250412-19], which “excess over highest single agent” value is on record?
Its value is -164.

`OC1CCC(Nc2ncc3nc(Nc4c(F)cc(F)cc4F)n([C@@H]4CCOC4)c3n2)CC1` (some centres undefined) + Cc1sc2c(c1C)C(c1ccc(Cl)cc1)=N[C@@H](CC(=O)OC(C)(C)C)c1nnc(C)n1-2 [NCGC00250412-19] was tested. Which “excess over highest single agent” value did it give?
Its value is 17.3.

How did the “excess over highest single agent” value turn out when `COc1ccc(C2=N[C@@H](c3ccc(Cl)cc3)[C@@H](c3ccc(Cl)cc3)N2C(=O)N2CCNC(=O)C2)c(OC(C)C)c1` + Cc1sc2c(c1C)C(c1ccc(Cl)cc1)=N[C@@H](CC(=O)OC(C)(C)C)c1nnc(C)n1-2 [NCGC00250412-19] was run?
Its value is -130.

Which “excess over highest single agent” value does the source give for `NC(=O)c1ccc(I)c([N+](=O)[O-])c1` + Cc1sc2c(c1C)C(c1ccc(Cl)cc1)=N[C@@H](CC(=O)OC(C)(C)C)c1nnc(C)n1-2 [NCGC00250412-19] here?
Its value is -34.5.

`c1ccc(-c2oc3ncnc(NC[C@@H]4CCCO4)c3c2-c2ccccc2)cc1` + Cc1sc2c(c1C)C(c1ccc(Cl)cc1)=N[C@@H](CC(=O)OC(C)(C)C)c1nnc(C)n1-2 [NCGC00250412-19] was tested. Which “excess over highest single agent” value did it give?
Its value is 91.3.

`COCC1(CO)C(=O)C2CCN1CC2` (centres undefined) + Cc1sc2c(c1C)C(c1ccc(Cl)cc1)=N[C@@H](CC(=O)OC(C)(C)C)c1nnc(C)n1-2 [NCGC00250412-19] was tested. Which “excess over highest single agent” value did it give?
The value was -60.5.

`O=C(O)c1cc(/N=N/c2ccc(S(=O)(=O)Nc3ccccn3)cc2)ccc1O` + Cc1sc2c(c1C)C(c1ccc(Cl)cc1)=N[C@@H](CC(=O)OC(C)(C)C)c1nnc(C)n1-2 [NCGC00250412-19] was tested. Which “excess over highest single agent” value did it give?
Its value is -71.1.

With `O=C(O)c1ccc(O)c2ncc(N3CCOCC3)cc12` + Cc1sc2c(c1C)C(c1ccc(Cl)cc1)=N[C@@H](CC(=O)OC(C)(C)C)c1nnc(C)n1-2 [NCGC00250412-19] as the molecule, how does the “excess over highest single agent” value read?
The value was 280.
